# Reference: the supplement of paper PMC8728848
# Some of the results follow.
# B1: SRS2 (Toxoplasma gondii), O15695 (protein)
# chain: MATRASLARQKTGAACLAVLTASPSVVAAKPWKRWVGVSVILASAFAVGVSAGPPYRYEPEKFTCRPKKGILSQWVSLLYQVQHNITFACEEATPVPTTLISEEHGLMVCAENMTPEECEANPAPLSAFLPGATKEWVTGDSVLTGLKISVPESQYPANAKSFRVGCRHNTKTGNTCMLTIHVEPRDPAVERQEARCSYTENSTLPKIFVTKDSNTMTLACGPHGAPMPESYTENYCSTPDTCDEKPFTSVIPGYLSKWFFGDPKSPLGARVRIPPEQIPSSPQINYFGCTGPTEGEGPKYNCTVPVPLGGGDPSEGSRPGGGSGGGKRGGGQGGGGSLAGFDFRQGSARHSLPSRMALSASALLAMTALAY
# Experiments:
# Assay in all cases: glycan array binding signal (z-score within array); higher = stronger binding
# Details in all cases: glycan notation: IUPAC condensed, linker removed
# [1] = target: Gal(b1-3)[Fuc(a1-4)]GlcNAc
# Outline: (§1)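 Arrays were curated from the Consortium for Functional Glycomics database, 3228 in total, and kept only where the protein sequence was available. Binding is expressed as a within-array Z-score. This score was averaged across arrays of the same protein sequence at different concentrations or buffers and across linkers, and negative values can be read as non-binding.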
# [2] = target: Gal(b1-3)[Fuc(a1-4)]GlcNAc(b1-2)Man(a1-3)[Gal(b1-3)[Fuc(a1-4)]GlcNAc(b1-2)Man(a1-6)]Man(b1-4)GlcNAc(b1-4)GlcNAc
# Outline: as §1
# [3] = target: Gal(b1-3)[Fuc(a1-4)]GlcNAc(b1-2)Man(a1-3)[Gal(b1-3)[Fuc(a1-4)]GlcNAc(b1-2)Man(a1-6)]Man(b1-4)GlcNAc(b1-4)[Fuc(a1-6)]GlcNAc
# Outline: as §1
# [4] = target: Gal(b1-3)[Fuc(a1-4)]GlcNAc(b1-3)Gal(b1-3)[Fuc(a1-4)]GlcNAc
# Outline: as §1
# [5] = target: Gal(b1-3)[Fuc(a1-4)]GlcNAc(b1-3)Gal(b1-4)GlcNAc
# Outline: as §1
# [6] = target: Gal(b1-3)[Fuc(a1-4)]GlcNAc(b1-3)Gal(b1-4)[Fuc(a1-3)]GlcNAc
# Outline: as §1
# [7] = target: Gal(b1-3)[GlcNAc(b1-6)]GalNAc
# Outline: as §1
# [8] = target: Gal(b1-3)[Neu5Ac(a2-6)]GalNAc
# Outline: as §1
# [9] = target: Gal(b1-3)[Neu5Ac(a2-6)]GlcNAc(b1-6)Gal(b1-4)Glc
# Outline: as §1
# [10] = target: Gal(b1-3)[Neu5Ac(b2-6)]GalNAc
# Outline: as §1
# [11] = target: Gal(b1-4)GalNAc(a1-3)[Fuc(a1-2)]Gal(b1-4)GlcNAc
# Outline: as §1
# [12] = target: Gal(b1-4)GalNAc(b1-3)[Fuc(a1-2)]Gal(b1-4)GlcNAc
# Outline: as §1
# [13] = target: Gal(b1-4)Glc
# Outline: as §1
# [14] = target: Gal(b1-4)Glc6S
# Outline: as §1
# [15] = target: Gal(b1-4)GlcNAc
# Outline: as §1
# [16] = target: Gal(b1-4)GlcNAc(a1-6)Gal(b1-4)GlcNAc
# Outline: as §1
# [17] = target: Gal(b1-4)GlcNAc(b1-2)Man(a1-3)Man(b1-4)GlcNAc(b1-4)GlcNAc
# Outline: as §1
# [18] = target: Gal(b1-4)GlcNAc(b1-2)Man(a1-3)[Gal(b1-4)GlcNAc(b1-2)Man(a1-6)]Man(b1-4)GlcNAc(b1-4)GlcNAc
# Outline: as §1
# [19] = target: Gal(b1-4)GlcNAc(b1-2)Man(a1-3)[Gal(b1-4)GlcNAc(b1-2)Man(a1-6)]Man(b1-4)GlcNAc(b1-4)[Fuc(a1-6)]GlcNAc
# Outline: as §1
# [20] = target: Gal(b1-4)GlcNAc(b1-2)Man(a1-3)[GlcNAc(b1-2)Man(a1-6)]Man(b1-4)GlcNAc(b1-4)GlcNAc
# Outline: as §1
# [21] = target: Gal(b1-4)GlcNAc(b1-2)Man(a1-3)[Man(a1-6)]Man(b1-4)GlcNAc(b1-4)GlcNAc
# Outline: as §1
# [22] = target: Gal(b1-4)GlcNAc(b1-2)Man(a1-6)Man(b1-4)GlcNAc(b1-4)GlcNAc
# Outline: as §1
# [23] = target: Gal(b1-4)GlcNAc(b1-2)Man(a1-6)[GlcNAc(b1-2)Man(a1-3)]Man(b1-4)GlcNAc(b1-4)GlcNAc
# Outline: as §1
# [24] = target: Gal(b1-4)GlcNAc(b1-2)Man(a1-6)[Man(a1-3)]Man(b1-4)GlcNAc(b1-4)GlcNAc
# Outline: as §1
# [25] = target: Gal(b1-4)GlcNAc(b1-2)[Gal(b1-4)GlcNAc(b1-4)]Man(a1-3)[Gal(b1-4)GlcNAc(b1-2)Man(a1-6)]Man(b1-4)GlcNAc(b1-4)GlcNAc
# Outline: as §1
# [26] = target: Gal(b1-4)GlcNAc(b1-2)[Gal(b1-4)GlcNAc(b1-4)]Man(a1-3)[Gal(b1-4)GlcNAc(b1-2)[Gal(b1-4)GlcNAc(b1-6)]Man(a1-6)]Man(b1-4)GlcNAc(b1-4)GlcNAc
# Outline: as §1
# [27] = target: Gal(b1-4)GlcNAc(b1-3)Gal(b1-3)GlcNAc
# Outline: as §1
# [28] = target: Gal(b1-4)GlcNAc(b1-3)Gal(b1-4)Glc
# Outline: as §1
# [29] = target: Gal(b1-4)GlcNAc(b1-3)Gal(b1-4)GlcNAc
# Outline: as §1
# [30] = target: Gal(b1-4)GlcNAc(b1-3)Gal(b1-4)GlcNAc(b1-3)Gal(b1-4)GlcNAc
# Outline: as §1
# [31] = target: Gal(b1-4)GlcNAc(b1-3)Gal(b1-4)[Fuc(a1-3)]GlcNAc(b1-3)Gal(b1-4)[Fuc(a1-3)]GlcNAc
# Outline: as §1
# [32] = target: Gal(b1-4)GlcNAc(b1-3)GalNAc
# Outline: as §1
# [33] = target: Gal(b1-4)GlcNAc(b1-3)[Gal(b1-4)GlcNAc(b1-6)]Gal(b1-4)GlcNAc
# Outline: as §1
# [34] = target: Gal(b1-4)GlcNAc(b1-3)[Gal(b1-4)GlcNAc(b1-6)]GalNAc
# Outline: as §1
# [35] = target: Gal(b1-4)GlcNAc(b1-3)[GlcNAc(b1-6)]Gal(b1-4)GlcNAc
# Outline: as §1
# [36] = target: Gal(b1-4)GlcNAc(b1-6)Gal(b1-4)GlcNAc
# Outline: as §1
# [37] = target: Gal(b1-4)GlcNAc(b1-6)GalNAc
# Outline: as §1
binder,measurement,setting,value
B1,glycan array binding signal (z-score),[1],-0.246
same,glycan array binding signal (z-score),[2],1.03
same,glycan array binding signal (z-score),[3],-0.006
same,glycan array binding signal (z-score),[4],0.13
same,glycan array binding signal (z-score),[5],-0.495
same,glycan array binding signal (z-score),[6],0.915
same,glycan array binding signal (z-score),[7],-0.089
same,glycan array binding signal (z-score),[8],-0.032
same,glycan array binding signal (z-score),[9],-0.026
same,glycan array binding signal (z-score),[10],-0.207
same,glycan array binding signal (z-score),[11],0.163
same,glycan array binding signal (z-score),[12],-0.802
same,glycan array binding signal (z-score),[13],-0.395
same,glycan array binding signal (z-score),[14],-0.35
same,glycan array binding signal (z-score),[15],-0.427
same,glycan array binding signal (z-score),[16],0.926
same,glycan array binding signal (z-score),[17],-0.517
same,glycan array binding signal (z-score),[18],-0.061
same,glycan array binding signal (z-score),[19],1.54
same,glycan array binding signal (z-score),[20],0.226
same,glycan array binding signal (z-score),[21],0.63
same,glycan array binding signal (z-score),[22],0.196
same,glycan array binding signal (z-score),[23],1.51
same,glycan array binding signal (z-score),[24],1.17
same,glycan array binding signal (z-score),[25],0.03
same,glycan array binding signal (z-score),[26],0.293
same,glycan array binding signal (z-score),[27],0.954
same,glycan array binding signal (z-score),[28],-0.424
same,glycan array binding signal (z-score),[29],0.119
same,glycan array binding signal (z-score),[30],-0.504
same,glycan array binding signal (z-score),[31],-0.041
same,glycan array binding signal (z-score),[32],0.086
same,glycan array binding signal (z-score),[33],0.719
same,glycan array binding signal (z-score),[34],6.82
same,glycan array binding signal (z-score),[35],-0.425
same,glycan array binding signal (z-score),[36],-0.575
same,glycan array binding signal (z-score),[37],0.894

# Two entries from above, with bars between the fields.
binder | measurement | setting | value
B1 | glycan array binding signal (z-score) | [12] | -0.802
same | glycan array binding signal (z-score) | [36] | -0.575
